{"sequences": {"note": "Protein sequences, listed by entry. Tags and fused reporters are not part of them. Residues count along the entry.", "UniProt P08709, 61-212 limits assumed": "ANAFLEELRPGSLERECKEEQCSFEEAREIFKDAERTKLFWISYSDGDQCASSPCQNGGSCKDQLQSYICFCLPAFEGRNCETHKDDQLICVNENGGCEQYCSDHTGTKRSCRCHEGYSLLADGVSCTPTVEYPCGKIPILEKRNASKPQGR", "UniProt P08709, 213-466 limits assumed": "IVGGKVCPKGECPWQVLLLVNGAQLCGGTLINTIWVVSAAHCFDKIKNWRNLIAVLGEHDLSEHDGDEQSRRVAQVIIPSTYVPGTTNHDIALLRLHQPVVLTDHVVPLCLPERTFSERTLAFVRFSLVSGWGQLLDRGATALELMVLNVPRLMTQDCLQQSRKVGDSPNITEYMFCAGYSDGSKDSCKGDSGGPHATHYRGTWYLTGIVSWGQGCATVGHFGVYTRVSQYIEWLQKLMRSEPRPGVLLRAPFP", "UniProt P13726, 33-295 partner limits assumed": "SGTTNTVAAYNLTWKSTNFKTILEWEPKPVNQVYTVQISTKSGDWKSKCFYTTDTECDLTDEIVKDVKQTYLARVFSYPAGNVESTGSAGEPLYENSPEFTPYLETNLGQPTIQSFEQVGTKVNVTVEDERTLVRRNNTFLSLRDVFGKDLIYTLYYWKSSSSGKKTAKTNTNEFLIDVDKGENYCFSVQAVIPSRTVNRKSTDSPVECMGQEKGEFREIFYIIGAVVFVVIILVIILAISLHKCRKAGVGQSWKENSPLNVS"}, "source": "patent US20030027819A1", "about": "“Beta-sheet mimetics and methods relating to the use thereof” (Molecumetics Ltd., priority 1996, published 2003)", "target": "factor VII (Homo sapiens, UniProt P08709)", "assay": "Factor VII inhibition assay (Ki, Example 5)", "conditions": "read-out: Ki Factor VII", "note": "The match of structure and compound is tentative."}
{"smiles": "N=C(N)NCCC[C@H](NC(=O)[C@@H]1CC[C@@H]2CC[C@@](N)(Cc3ccccc3)C(=O)N21)C(=O)c1nc2ccccc2s1", "note": "[Structure 29b]", "values": [{"measurement": "Ki", "result": 200, "unit": "nM"}]}
